In the supplement of paper PMC10849652:
The list shows a part of the results.

Protein sequences, listed by entry. Tags and fused reporters are not part of them. Lines headed by an entry give the natural chain unless they say otherwise; changes in a name come on top.
UniProt Q9Y5S2: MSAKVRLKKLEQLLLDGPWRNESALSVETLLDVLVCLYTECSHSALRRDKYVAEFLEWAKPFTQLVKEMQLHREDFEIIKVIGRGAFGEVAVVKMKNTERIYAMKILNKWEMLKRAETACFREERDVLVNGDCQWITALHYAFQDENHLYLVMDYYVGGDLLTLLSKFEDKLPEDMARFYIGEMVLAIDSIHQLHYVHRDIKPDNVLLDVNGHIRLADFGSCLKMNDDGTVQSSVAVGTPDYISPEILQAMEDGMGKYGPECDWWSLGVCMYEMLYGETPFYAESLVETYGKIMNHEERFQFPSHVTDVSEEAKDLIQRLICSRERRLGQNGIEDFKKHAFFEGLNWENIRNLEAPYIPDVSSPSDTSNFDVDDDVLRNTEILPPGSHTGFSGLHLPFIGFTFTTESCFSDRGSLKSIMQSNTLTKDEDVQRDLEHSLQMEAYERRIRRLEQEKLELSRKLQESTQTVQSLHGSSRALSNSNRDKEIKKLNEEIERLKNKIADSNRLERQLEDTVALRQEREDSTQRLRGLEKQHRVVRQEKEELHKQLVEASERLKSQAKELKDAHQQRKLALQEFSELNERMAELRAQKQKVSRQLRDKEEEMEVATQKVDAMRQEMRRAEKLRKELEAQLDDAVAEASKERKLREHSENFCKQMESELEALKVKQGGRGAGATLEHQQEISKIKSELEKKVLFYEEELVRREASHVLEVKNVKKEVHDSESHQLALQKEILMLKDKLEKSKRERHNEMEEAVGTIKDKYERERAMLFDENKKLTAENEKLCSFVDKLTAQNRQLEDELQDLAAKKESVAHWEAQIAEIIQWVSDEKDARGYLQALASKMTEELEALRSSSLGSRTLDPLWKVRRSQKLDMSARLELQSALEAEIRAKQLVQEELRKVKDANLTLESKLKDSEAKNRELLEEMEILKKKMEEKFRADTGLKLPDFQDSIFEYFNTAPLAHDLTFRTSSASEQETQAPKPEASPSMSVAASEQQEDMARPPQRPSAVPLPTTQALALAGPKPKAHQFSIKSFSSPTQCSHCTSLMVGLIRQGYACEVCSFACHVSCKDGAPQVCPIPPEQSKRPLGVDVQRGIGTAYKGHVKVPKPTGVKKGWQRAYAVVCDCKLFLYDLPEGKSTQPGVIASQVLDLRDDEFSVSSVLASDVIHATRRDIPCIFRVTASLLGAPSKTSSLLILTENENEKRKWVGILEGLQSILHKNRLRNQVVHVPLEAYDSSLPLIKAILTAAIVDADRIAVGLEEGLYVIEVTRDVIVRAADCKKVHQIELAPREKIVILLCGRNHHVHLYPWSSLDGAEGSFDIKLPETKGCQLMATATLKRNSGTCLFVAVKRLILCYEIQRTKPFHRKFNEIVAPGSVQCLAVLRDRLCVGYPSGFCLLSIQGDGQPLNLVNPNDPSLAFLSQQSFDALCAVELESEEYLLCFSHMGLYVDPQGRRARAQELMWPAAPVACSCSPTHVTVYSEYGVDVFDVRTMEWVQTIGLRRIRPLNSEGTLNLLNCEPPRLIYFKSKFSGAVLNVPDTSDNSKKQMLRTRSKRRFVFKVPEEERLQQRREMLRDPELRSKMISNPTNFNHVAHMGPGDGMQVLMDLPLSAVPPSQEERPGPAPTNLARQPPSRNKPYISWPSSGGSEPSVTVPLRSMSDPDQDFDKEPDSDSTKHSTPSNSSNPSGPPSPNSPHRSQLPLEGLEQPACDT
UniProt Q9BV73: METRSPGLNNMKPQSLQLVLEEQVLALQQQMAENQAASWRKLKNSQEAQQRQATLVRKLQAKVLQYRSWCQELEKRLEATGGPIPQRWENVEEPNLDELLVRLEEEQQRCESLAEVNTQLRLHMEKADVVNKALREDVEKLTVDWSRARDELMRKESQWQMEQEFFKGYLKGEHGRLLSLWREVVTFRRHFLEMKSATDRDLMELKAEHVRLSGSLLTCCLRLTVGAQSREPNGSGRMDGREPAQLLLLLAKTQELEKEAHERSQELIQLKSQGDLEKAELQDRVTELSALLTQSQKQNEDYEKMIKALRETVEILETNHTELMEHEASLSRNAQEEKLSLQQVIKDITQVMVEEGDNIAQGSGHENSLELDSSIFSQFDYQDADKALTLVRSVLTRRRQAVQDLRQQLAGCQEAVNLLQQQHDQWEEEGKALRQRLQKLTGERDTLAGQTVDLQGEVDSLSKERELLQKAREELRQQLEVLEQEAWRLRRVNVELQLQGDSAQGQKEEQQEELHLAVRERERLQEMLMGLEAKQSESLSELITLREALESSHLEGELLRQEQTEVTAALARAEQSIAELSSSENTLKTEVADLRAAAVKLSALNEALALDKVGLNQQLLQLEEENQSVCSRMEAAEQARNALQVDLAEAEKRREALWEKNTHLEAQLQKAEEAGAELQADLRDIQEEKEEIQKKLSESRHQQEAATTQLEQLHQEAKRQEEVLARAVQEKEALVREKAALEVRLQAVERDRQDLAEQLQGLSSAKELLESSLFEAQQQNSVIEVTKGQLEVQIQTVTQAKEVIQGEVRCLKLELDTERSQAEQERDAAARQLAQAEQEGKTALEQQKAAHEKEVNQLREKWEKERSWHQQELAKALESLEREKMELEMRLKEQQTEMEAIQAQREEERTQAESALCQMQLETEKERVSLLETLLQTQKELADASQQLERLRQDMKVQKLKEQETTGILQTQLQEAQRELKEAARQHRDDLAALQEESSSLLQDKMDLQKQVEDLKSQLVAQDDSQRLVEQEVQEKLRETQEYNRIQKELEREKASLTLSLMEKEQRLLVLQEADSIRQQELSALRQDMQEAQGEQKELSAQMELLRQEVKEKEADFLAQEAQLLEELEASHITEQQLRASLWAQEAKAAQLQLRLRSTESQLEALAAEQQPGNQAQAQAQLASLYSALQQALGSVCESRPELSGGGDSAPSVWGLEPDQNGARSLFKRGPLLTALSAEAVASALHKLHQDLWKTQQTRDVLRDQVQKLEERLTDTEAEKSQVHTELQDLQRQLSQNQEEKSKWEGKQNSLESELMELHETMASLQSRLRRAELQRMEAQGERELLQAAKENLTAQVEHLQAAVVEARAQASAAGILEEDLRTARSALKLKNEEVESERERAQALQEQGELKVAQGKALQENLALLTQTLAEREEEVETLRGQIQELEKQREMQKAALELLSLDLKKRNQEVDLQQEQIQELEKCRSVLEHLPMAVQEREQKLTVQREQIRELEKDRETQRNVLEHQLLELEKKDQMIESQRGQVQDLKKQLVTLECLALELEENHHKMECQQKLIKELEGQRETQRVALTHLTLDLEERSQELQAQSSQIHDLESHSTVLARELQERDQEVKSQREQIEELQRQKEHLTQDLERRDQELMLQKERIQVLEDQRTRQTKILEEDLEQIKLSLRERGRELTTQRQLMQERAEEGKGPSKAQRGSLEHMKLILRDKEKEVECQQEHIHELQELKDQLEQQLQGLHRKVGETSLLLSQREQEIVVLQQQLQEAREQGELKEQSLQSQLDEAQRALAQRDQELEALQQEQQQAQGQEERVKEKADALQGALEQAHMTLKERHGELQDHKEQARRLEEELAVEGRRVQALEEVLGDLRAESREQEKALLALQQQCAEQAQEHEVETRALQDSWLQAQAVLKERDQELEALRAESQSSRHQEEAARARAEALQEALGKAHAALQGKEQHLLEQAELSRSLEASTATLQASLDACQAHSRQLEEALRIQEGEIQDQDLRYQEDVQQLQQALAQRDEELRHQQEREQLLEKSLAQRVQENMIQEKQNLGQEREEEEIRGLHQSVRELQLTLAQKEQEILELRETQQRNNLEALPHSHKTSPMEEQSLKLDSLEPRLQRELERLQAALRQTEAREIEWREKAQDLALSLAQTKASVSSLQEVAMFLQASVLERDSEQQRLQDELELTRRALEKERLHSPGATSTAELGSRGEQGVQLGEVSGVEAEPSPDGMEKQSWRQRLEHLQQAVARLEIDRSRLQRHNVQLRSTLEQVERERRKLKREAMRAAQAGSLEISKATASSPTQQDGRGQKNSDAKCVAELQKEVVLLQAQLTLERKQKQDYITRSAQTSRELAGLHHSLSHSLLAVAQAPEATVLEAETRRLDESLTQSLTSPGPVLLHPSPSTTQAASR
UniProt Q9HC77: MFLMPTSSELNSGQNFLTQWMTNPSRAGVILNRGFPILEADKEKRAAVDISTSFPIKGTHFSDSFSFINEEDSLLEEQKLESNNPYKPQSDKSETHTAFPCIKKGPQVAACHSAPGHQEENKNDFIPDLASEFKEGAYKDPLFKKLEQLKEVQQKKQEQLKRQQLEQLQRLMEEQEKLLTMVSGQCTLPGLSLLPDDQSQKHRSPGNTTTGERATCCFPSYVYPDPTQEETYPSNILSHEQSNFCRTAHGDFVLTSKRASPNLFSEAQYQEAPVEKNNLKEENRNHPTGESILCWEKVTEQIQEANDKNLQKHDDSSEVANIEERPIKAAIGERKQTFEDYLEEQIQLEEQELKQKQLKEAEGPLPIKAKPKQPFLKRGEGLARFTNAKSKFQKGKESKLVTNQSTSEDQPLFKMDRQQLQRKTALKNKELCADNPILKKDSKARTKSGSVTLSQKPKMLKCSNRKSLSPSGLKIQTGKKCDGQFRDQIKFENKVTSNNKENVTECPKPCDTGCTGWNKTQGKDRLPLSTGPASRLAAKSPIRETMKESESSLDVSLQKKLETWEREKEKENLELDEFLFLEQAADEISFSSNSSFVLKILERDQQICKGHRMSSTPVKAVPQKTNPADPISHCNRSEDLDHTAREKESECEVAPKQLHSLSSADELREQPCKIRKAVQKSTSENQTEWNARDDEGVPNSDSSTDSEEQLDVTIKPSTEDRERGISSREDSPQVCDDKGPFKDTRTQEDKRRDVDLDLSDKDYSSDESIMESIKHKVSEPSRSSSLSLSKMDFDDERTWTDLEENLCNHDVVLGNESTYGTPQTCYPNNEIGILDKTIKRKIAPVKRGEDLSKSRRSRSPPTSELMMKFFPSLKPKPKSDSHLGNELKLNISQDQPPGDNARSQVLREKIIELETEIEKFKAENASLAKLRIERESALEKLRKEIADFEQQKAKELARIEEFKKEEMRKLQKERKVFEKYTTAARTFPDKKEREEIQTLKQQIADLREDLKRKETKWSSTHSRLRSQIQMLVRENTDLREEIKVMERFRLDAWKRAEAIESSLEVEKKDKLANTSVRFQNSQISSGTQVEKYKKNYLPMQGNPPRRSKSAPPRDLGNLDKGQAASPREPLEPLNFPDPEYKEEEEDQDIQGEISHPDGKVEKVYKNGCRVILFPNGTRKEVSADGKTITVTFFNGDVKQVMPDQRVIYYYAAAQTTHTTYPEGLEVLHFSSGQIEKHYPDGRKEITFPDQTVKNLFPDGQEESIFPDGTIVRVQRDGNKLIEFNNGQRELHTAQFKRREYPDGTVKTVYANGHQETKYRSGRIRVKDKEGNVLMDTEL
UniProt Q5VXU3: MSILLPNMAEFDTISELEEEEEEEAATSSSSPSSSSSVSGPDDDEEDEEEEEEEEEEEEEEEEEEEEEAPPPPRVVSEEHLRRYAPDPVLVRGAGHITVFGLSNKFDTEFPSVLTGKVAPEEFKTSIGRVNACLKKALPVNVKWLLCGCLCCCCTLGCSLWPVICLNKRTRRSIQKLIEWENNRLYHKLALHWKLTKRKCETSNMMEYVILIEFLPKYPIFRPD
UniProt Q9BWU1: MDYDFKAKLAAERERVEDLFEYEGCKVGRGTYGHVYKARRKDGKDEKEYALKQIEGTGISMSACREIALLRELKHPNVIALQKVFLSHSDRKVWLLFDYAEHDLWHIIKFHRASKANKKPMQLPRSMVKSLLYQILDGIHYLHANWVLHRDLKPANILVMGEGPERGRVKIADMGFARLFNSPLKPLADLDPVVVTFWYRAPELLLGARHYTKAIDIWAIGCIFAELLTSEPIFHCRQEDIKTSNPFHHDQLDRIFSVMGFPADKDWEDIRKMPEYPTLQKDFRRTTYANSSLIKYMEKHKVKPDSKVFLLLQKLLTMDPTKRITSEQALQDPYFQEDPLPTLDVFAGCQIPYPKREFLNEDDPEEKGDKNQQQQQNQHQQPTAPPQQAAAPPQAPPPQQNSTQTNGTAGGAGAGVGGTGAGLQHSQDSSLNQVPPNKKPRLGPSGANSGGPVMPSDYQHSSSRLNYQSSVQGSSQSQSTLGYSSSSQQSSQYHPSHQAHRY
UniProt Q8N4Q1: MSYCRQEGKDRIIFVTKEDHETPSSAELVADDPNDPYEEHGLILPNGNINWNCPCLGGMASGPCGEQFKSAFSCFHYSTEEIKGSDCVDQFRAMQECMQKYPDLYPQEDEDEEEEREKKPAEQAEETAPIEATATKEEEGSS

Experiments:
Assay in all cases: log2 fold change, soluble protein after heating vs DMSO (PISA); higher = thermal stabilisation; K562 cells, 10 uM, 30 min; active = over 0.2 and 3.5 SD of the protein, either way, in both replicates (recomputed)
[1] = compound: CS(=O)(=O)c1ccc(-c2cnc(N)c(C(=O)Nc3ccccc3)n2)cc1
Procedure, shortened: (§1)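 For each measurement, 10 μM compound was applied for 30 min to K562 cells at 2×10^6 cells/mL. Aliquots were heated for 3 min across 48°C-58°C, pooled, and extracted in PBS with 0.5% NP-40 at 4°C; the supernatant after 21,000xg for 90 min was soluble protein. This was quantified by TMTpro 16plex LC-MS/MS with channel sums equalised, and thermal stability was reported relative to control samples from duplicates, on a log2 fold-change scale.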

crizotinib = compound: C[C@@H](Oc1cc(-c2cnn(C3CCNCC3)c2)cnc1N)c1c(Cl)ccc(F)c1Cl [crizotinib]
Procedure, shortened: as §1

[2] = compound: C[C@@H]1COCCN1C2=NC(=NC(=C2)C3(CC3)S(=O)(=O)C)C4=C5C=CNC5=CC=C4
Procedure, shortened: as §1

[3] = compound: C[C@H](C1=CC=C(C=C1)C(=O)NC2=C3C=CNC3=NC=C2)N
Procedure, shortened: as §1

gandotinib = compound: Cc1cc(Nc2cc(CN3CCOCC3)c3nc(C)c(Cc4ccc(Cl)cc4F)n3n2)n[nH]1 [gandotinib]
Procedure, shortened: as §1

[4] = compound: Cc1cc(SCc2sc(-c3ccc(C(F)(F)F)cc3)nc2C)ccc1OCC(=O)O
Procedure, shortened: as §1

doramapimod = compound: Cc1ccc(-n2nc(C(C)(C)C)cc2NC(=O)Nc2ccc(OCCN3CCOCC3)c3ccccc23)cc1 [doramapimod]
Procedure, shortened: as §1

ispinesib = compound: Cc1ccc(C(=O)N(CCCN)[C@@H](c2nc3cc(Cl)ccc3c(=O)n2Cc2ccccc2)C(C)C)cc1 [ispinesib]
Procedure, shortened: as §1

bafetinib = compound: Cc1ccc(NC(=O)c2ccc(CN3CC[C@H](N(C)C)C3)c(C(F)(F)F)c2)cc1Nc1nccc(-c2cncnc2)n1 [bafetinib]
Procedure, shortened: as §1

[5] = compound: Cc1cccc(CC(=O)N2CCc3c2ccc(-c2cn(C)c4ncnc(N)c24)c3F)n1
Procedure, shortened: as §1

nilotinib = compound: Cc1cn(-c2cc(NC(=O)c3ccc(C)c(Nc4nccc(-c5cccnc5)n4)c3)cc(C(F)(F)F)c2)cn1 [nilotinib]
Procedure, shortened: as §1

[6] = compound: Cc1nc(Nc2n[nH]c3c2CN(C(=O)N[C@H](CN(C)C)c2ccccc2)C3(C)C)c2sccc2n1
Procedure, shortened: as §1

dasatinib = compound: Cc1nc(Nc2ncc(C(=O)Nc3c(C)cccc3Cl)s2)cc(N2CCN(CCO)CC2)n1 [dasatinib]
Procedure, shortened: as §1

[7] = compound: Cc1ncc(-c2ccnc(Nc3ccc(S(C)(=O)=O)cc3)n2)n1C(C)C
Procedure, shortened: as §1

[8] = compound: Cn1cc(-c2ccc3c(c2)CCN3C(=O)Cc2cccc(C(F)(F)F)c2)c2c(N)ncnc21
Procedure, shortened: as §1

[9] = compound: Cn1cc(-c2ccc3nnc(C(F)(F)c4ccc5ncccc5c4)n3n2)cn1
Procedure, shortened: as §1

tipifarnib = compound: Cn1cncc1[C@@](N)(c1ccc(Cl)cc1)c1ccc2c(c1)c(-c1cccc(Cl)c1)cc(=O)n2C [tipifarnib]
Procedure, shortened: as §1

mubritinib = compound: FC(F)(F)c1ccc(/C=C/c2nc(COc3ccc(CCCCn4ccnn4)cc3)co2)cc1 [mubritinib]
Procedure, shortened: as §1

duvelisib = compound: C[C@H](Nc1ncnc2nc[nH]c12)c1cc2cccc(Cl)c2c(=O)n1-c1ccccc1 [duvelisib]
Procedure, shortened: as §1

tozasertib = compound: Cc1cc(Nc2cc(N3CCN(C)CC3)nc(Sc3ccc(NC(=O)C4CC4)cc3)n2)n[nH]1 [tozasertib]
Procedure, shortened: as §1

Target | log2 fold change [1] | log2 fold change (crizotinib) | log2 fold change [2] | log2 fold change [3] | log2 fold change (gandotinib) | log2 fold change [4] | log2 fold change (doramapimod) | log2 fold change (ispinesib) | log2 fold change (bafetinib) | log2 fold change [5] | log2 fold change (nilotinib) | log2 fold change [6] | log2 fold change (dasatinib) | log2 fold change [7] | log2 fold change [8] | log2 fold change [9] | log2 fold change (tipifarnib) | log2 fold change (mubritinib) | log2 fold change (duvelisib) | log2 fold change (tozasertib)
CDC42BPB (UniProt Q9Y5S2) | inactive: 0.068 | inactive: 0.056 | inactive: -0.031 | inactive: -0.149 | inactive: 0.029 | inactive: 0.005 | inactive: 0.01 | inactive: -0.148 | inactive: 0.22 | inactive: -0.034 | inactive: 0.062 | inactive: -0.118 | inactive: -0.029 | inactive: 0.106 | inactive: -0.054 | inactive: -0.017 | inactive: 0.094 | inactive: 0.177 |  | 
CEP250 (UniProt Q9BV73) | inactive: -0.023 | inactive: 0.115 | inactive: -0.024 | inactive: -0.062 |  | inactive: 0.171 | inactive: 0.182 | inactive: -0.089 | inactive: -0.438 |  | inactive: 0.073 | inactive: 0.013 | inactive: -0.092 | inactive: 0.057 | inactive: -0.033 | inactive: 0.021 | inactive: -0.119 | inactive: 0.099 | inactive: -0.082 | inactive: 0.126
CDC45 isoform 3 (UniProt O75419) | inactive: 0.115 | inactive: -0.228 | inactive: 0.07 | inactive: 0.179 | inactive: -0.053 | inactive: 0.096 | inactive: 0.174 | inactive: -0.198 |  | inactive: 0.07 | inactive: -0.287 | inactive: -0.198 | inactive: -0.141 | inactive: -0.102 | inactive: -0.042 | inactive: -0.057 | inactive: -0.153 |  | inactive: 0.039 | inactive: -0.012
CENPJ (UniProt Q9HC77) | inactive: -0.03 | inactive: 0.033 | inactive: 0.025 |  |  |  | inactive: 0.275 | inactive: -0.088 |  |  |  |  |  |  |  | inactive: 0.061 | inactive: 0.186 |  |  | inactive: -0.132
CDCA2 (UniProt Q69YH5) | inactive: 0.161 | inactive: 0.025 | inactive: 0.041 | inactive: -0.021 | inactive: 0.098 |  | inactive: 0.088 | inactive: -0.04 |  | inactive: -0.065 | inactive: 0.164 | inactive: -0.114 |  | inactive: 0.042 | inactive: 0.159 | inactive: -0.215 | inactive: 0.182 | inactive: -0.256 |  | 
CHIC1 (UniProt Q5VXU3) | inactive: 0.014 |  | inactive: -0.208 |  | inactive: 0.121 | inactive: -0.042 |  | inactive: -0.172 | inactive: 0.038 | inactive: 0.071 | inactive: -0.161 | inactive: -0.054 | inactive: 0.019 | inactive: 0.001 |  | inactive: 0.166 | inactive: -0.108 | inactive: 0.083 | inactive: 0.188 | inactive: -0.131
CDK5RAP1 (UniProt Q96SZ6) | inactive: 0.005 | inactive: 0.041 | inactive: 0.033 | inactive: 0.031 | inactive: 0.033 | inactive: -0.025 | inactive: 0.05 | inactive: 0.048 | inactive: -0.052 | inactive: -0.058 | inactive: 0 | inactive: -0.008 | inactive: 0.175 | inactive: -0.006 | inactive: 0.044 | inactive: 0.017 | inactive: 0.031 | inactive: -0.03 |  | 
CDC5L (UniProt Q99459) | inactive: 0.05 | inactive: -0.065 |  | inactive: 0.39 | inactive: 0.079 | inactive: -0.016 | inactive: 0.152 | inactive: -0.272 |  | inactive: -0.068 |  |  | inactive: -0.041 |  | inactive: -0.201 | inactive: -0.086 |  | inactive: -0.166 | inactive: -0.062 | inactive: 0.115
CDK19 (UniProt Q9BWU1) | inactive: 0.042 |  | inactive: 0.03 | inactive: 0.401 | inactive: -0.051 | inactive: 0.034 |  | inactive: 0.291 |  | inactive: -0.014 | inactive: -0.266 | inactive: 0.297 | inactive: 0.101 | inactive: 0.338 | inactive: -0.01 | inactive: -0.054 | inactive: -0.045 | inactive: 0.112 |  | 
CHCHD4 isoform 2 (UniProt Q8N4Q1) | inactive: -0.041 | inactive: 0.017 | inactive: 0.156 | inactive: -0.272 | inactive: -0.079 | inactive: 0.022 | inactive: 0.069 | inactive: -0.074 | inactive: 0 | active: 0.764 | inactive: -0.054 | inactive: -0.015 | inactive: -0.121 | inactive: -0.039 | inactive: -0.185 | inactive: -0.059 | inactive: -0.208 | inactive: 0 |  | 
